Test results published in article PMC3234227.
No constants are given. Whether binding was seen depends on the method and setting. Some binding calls cover weakened binding; strength is not graded here.

Protein sequences, listed by entry. Tags and fused reporters are not part of them.
UniProt Q12983: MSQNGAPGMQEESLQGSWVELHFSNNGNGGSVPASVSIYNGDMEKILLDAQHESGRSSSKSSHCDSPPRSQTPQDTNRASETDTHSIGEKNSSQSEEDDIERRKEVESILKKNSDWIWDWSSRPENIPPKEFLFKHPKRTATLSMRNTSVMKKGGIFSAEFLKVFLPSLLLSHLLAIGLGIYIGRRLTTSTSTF
UniProt Q96NL1: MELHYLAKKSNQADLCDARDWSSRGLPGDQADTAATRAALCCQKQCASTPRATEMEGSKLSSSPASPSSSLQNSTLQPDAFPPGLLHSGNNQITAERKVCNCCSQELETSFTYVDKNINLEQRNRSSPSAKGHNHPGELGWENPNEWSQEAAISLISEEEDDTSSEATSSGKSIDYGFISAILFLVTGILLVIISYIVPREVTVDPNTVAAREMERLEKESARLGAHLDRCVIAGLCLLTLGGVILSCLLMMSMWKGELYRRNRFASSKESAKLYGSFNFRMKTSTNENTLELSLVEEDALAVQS

Target: BNIP3, yeast two-hybrid fusion (human) (UniProt Q12983)

Substance: TMEM74, yeast two-hybrid fusion (from UniProt Q96NL1 1-305)
- binding: binds
